Among the data in paper PMC8795592, “Human Dermcidin Protects Mice Against Hepatic Ischemia-Reperfusion–Induced Local and Remote Inflammatory Injury” (Frontiers in Immunology, 2021) are binding values, retold here.

Changes are numbered by the printed parent chain. Numbers in names are those of the source. These are yes or no findings as the source states them, for the method shown. Tags and fused reporters may be left off the sequences shown.

Assay [1] has as its target DCD-C34S analog (recombinant human dermcidin residue 20-110 with a Cys to Ser substitution at residue 34, N-terminal 6×His tag) (human) (UniProt P81605). Put plainly: SDS-PAGE with and without DTT; purified recombinant His-tagged protein run on SDS-PAGE in the presence or absence of the reducing agent dithiothreitol; shows disulfide-linked (covalent) dimers only; both purified.

For assay [2], the target named is recombinant human dermcidin (full-length DCD precursor, residue 20-110) with N-terminal 6×His tag (human) (UniProt P81605). The description is as above.

B1: DCD-C34S analog (recombinant human dermcidin residue 20-110 with a Cys to Ser substitution at residue 34, N-terminal 6×His tag) (natural protein, UniProt P81605 20-110, looked up)
chain: YDPEAASAPGSGNPSHEASAAQKENAGEDPGLARQAPKPRKQRSSLLEKGLDGAKKAVGGLGKLGKDAVEDLESVGKGAVHDVKDVLDSVL
notes: dermcidin (DCD), human, residues 20-110 without the signal leader peptide, with C34S; Made by similar procedures as m1; source: E. coli BL21 (DE3) pLysS, purified to homogeneity; Triton X-114 extraction to remove endotoxins; not shown: His6, N-terminal, kept
As to B1, the binding entry in assay [1] was “no binding”.

B2: recombinant human dermcidin (full-length DCD precursor, residue 20-110) with N-terminal 6×His tag (natural protein, UniProt P81605 20-110, looked up)
chain: B1 chain with S15C
notes: dermcidin (DCD), human, residues 20-110, without the N-terminal 19-aa signal leader peptide (residue 1-19); one sentence of the methods says residue 20-100; Without a reducing agent the preparation is a mixture of monomers and disulfide-linked dimers (through Cys34); results and legends print 20-110; also called recombinant DCD; source: E. coli BL21 (DE3) pLysS, purified; Triton X-114 extraction …
For B2, the binding result in assay [2] is “no binding (condition: with DTT)”.
